These are yes or no findings as the source states them, for the method shown. Binding seen in cells or lysates may run through a third protein. Some entries that bind do so weakly or less than the wild type. For part of these data: Where a sequence is shown, tags or fusion partners need not be part of it.
T1: GST-GGA3-GAT recombinant fusion protein (UniProt Q9NZ52)
T1 sequence: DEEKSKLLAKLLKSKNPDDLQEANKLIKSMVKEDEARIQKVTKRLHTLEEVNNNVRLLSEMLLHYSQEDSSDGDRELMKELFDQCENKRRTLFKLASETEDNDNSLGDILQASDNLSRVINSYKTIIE

By UniProt entry, the sequences of proteins in these tests, tags left out.
UniProt P61204: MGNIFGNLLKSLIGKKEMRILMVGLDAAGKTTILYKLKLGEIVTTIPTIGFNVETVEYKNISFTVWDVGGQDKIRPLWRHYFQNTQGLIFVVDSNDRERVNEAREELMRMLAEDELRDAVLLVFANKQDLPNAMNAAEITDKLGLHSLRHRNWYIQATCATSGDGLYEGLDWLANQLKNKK
UniProt P62330: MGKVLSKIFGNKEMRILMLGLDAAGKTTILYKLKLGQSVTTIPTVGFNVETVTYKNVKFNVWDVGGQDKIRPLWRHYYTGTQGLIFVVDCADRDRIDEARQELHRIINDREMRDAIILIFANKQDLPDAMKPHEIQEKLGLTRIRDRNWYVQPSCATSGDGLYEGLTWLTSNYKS
UniProt P84077: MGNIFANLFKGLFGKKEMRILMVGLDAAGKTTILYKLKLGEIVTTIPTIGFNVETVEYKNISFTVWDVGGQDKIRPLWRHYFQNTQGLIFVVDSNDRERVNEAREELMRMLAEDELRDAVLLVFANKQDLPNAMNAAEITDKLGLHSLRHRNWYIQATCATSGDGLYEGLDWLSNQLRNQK


Experiments:
[1] = molecular target: T1, GST-GGA3-GAT recombinant fusion protein; experiment: pull-down; ARF-GTP pulldown: 80 ug GST-GGA3-GAT immobilised on glutathione agarose in spin columns, 1 mg PC3 lysate, 2 h at 4°C, eluted with 10 mM glutathione; immunoblot for mNG or ARF3/ARF6; cells with Scr or PSD shRNA for the endogenous ARFs; only the target purified
[2] = molecular target: ARF3 GTPase (endogenous) (human (endogenous in PC3)) (UniProt P61204); experiment: co-IP; 1 mg PC3 cell lysate (RIPA lysis buffer) with 2 ug anti-ARF3 antibody (610784; BD) overnight at 4°C, anti-mouse agarose 1 h; mouse agarose as IgG control; washed three times in RIPA; immunoblot
[3] = molecular target: mNeonGreen (mNG)-tagged ARF3 (UniProt P61204); experiment: co-IP; 1 mg lysate of PC3 cells expressing mNG or ARF3-mNG, mNG-Trap Agarose beads (ChromoTek); immunoblot

Row | binding [1] | binding [2] | binding [3] | Molecule
1 | binds | – | – | ARF6 GTPase (endogenous) (from UniProt P62330 1-175)
2 | binds | – | – | mNeonGreen (mNG)-tagged ARF3 (from UniProt P61204 1-181)
3 | binds | – | – | ARF3 GTPase (endogenous) (from UniProt P61204 1-181)
4 | binds | – | – | mNeonGreen (mNG)-tagged ARF1 (from UniProt P84077 1-181)
5 | – | binds | binds | RAB11FIP4 (endogenous) (protein, UniProt Q86YS3 1-637) MAGGAGWSGAPAALLRSVRRLREVFEVCGRDPDGFLRVERVAALGLRFGQGEEVEKLVKYLDPNDLGRINFKDFCRGVFAMKGCEELLKDVLSVESAGTLPCAPEIPDCVEQGSEVTGPTFADGELIPREPGFFPEDEEEAMTLAPPEGPQELYTDSPMESTQSLEGSVGSPAEKDGGLGGLFLPEDKSLVHTPSMTTSDLSTHSTTSLISNEEQFEDYGEGDDVDCAPSSPCPDDETRTNVYSDLGSSVSSSAGQTPRKMRHVYNSELLDVYCSQCCKKINLLNDLEARLKNLKANSPNRKISSTAFGRQLMHSSNFSSSNGSTEDLFRDSIDSCDNDITEKVSFLEKKVTELENDSLTNGDLKSKLKQENTQLVHRVHELEEMVKDQETTAEQALEEEARRHREAYGKLEREKATEVELLNARVQQLEEENTELRTTVTRLKSQTEKLDEERQRMSDRLEDTSLRLKDEMDLYKRMMDKLRQNRLEFQKEREATQELIEDLRKELEHLQMYKLDCERPGRGRSASSGLGEFNARAREVELEHEVKRLKQENYKLRDQNDDLNGQILSLSLYEAKNLFAAQTKAQSLAAEIDTASRDELMEALKEQEEINFRLRQYMDKIILAILDHNPSILEIKH
